According to article PMC7819943, “Rice protein-binding microarrays: a tool to detect cis-acting elements near promoter regions in rice”:
This is one part of the list.

Protein sequences, listed by entry. Tags and fused reporters are not part of them.
UniProt Q0JBA9, entry or part of it: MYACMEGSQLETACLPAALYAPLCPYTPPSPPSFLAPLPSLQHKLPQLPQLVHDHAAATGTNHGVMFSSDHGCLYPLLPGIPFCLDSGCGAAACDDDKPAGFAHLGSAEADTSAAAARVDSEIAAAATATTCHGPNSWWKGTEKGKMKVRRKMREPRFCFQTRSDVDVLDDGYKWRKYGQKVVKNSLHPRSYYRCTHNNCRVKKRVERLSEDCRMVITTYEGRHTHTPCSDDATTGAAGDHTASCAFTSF

The sequences below were run against OsWRKY34 (Oryza sativa, UniProt Q0JBA9 1-250) (assay: protein-binding microarray (RPBM); PBS, 2% BSA, 51.3 ng/ul salmon testes DNA, 50 uM zinc acetate, 200 nM TF, 25 C, 1 h; high values mean tight binding). Conditions: protein: recombinant; tags: N-terminal polyhistidine and DsRed monomer fusion (pET32a); label: CyDye5-dUTP incorporated in the synthesized complementary strand; 3' TTTTT single-stranded linker to array surface; dsDNA, one strand shown.
Procedure, shortened: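 Binding signal here means per-feature fluorescence intensity in arbitrary units. The values were read on an Axon 4000B scanner after a custom Agilent array, double-stranded by primer extension with Cy5-dUTP, was incubated with 200 nM protein at 25 °C for 1 h in PBS with 2% BSA, salmon testes DNA and 50 µM zinc acetate, then washed. The proteins were transcription factors with an N-terminal polyhistidine tag and DsRed, expressed in E. coli BL21-CodonPlus and purified on Ni–NTA.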

With “GACGGTGAATAGTGGGATACTTTTATAATGGTGTTATGTTCGGAGTCACCTAGTGCAG” as the sequence, how does the binding signal read?
Its binding signal is 10100 fluorescence intensity (a.u.).

For “ATTCGTTTGCCCGTCACAGGTATCCCGTCAGAGGTGTGAGCGGAGTCACCTAGTGCAG”, which binding signal is on record?
Its binding signal is 8650 fluorescence intensity (a.u.).

With “CCTACTCCGCGAATCCGTCCCCGAGAACGCGCGCGCCATGCGGAGTCACCTAGTGCAG” as the sequence, how does the binding signal read?
Its binding signal is 8160 fluorescence intensity (a.u.).

How did the binding signal turn out when “CATCGCCCACGCCAATGTCGTCGCCGACGTCTCGCTGCCGCGGAGTCACCTAGTGCAG” was run?
Its binding signal is 8820 fluorescence intensity (a.u.).

For “GGCTCCGGAACTTACTCTAGCGCGCGTCGGATGACAAAATCGGAGTCACCTAGTGCAG”, which binding signal is on record?
Its binding signal is 10100 fluorescence intensity (a.u.).

Which binding signal does the source give for “CACTTCACAATTTGCTAGCCTCGGAAATACATGCCTCATTCGGAGTCACCTAGTGCAG” here?
The binding signal was 9590 fluorescence intensity (a.u.).

With “ACTGACATCATCACCAGCACCTCTGCTTCATCGACCCTGACGGAGTCACCTAGTGCAG” as the sequence, how does the binding signal read?
The binding signal was 9940 fluorescence intensity (a.u.).

Which binding signal does the source give for “TTTGATTAGATGGTGTGGTGTTTGGCTGATACACTGATACCGGAGTCACCTAGTGCAG” here?
The binding signal was 9670 fluorescence intensity (a.u.).

Which binding signal does the source give for “AGGCACACAACTATTTCTTCCAAAAAAATGTCTTTTTTCTCGGAGTCACCTAGTGCAG” here?
Its binding signal is 8540 fluorescence intensity (a.u.).

“AACTTGCCTTTCCGTTCCGCCGCTCGGTCTGCTCCAGCCACGGAGTCACCTAGTGCAG” was tested. Which binding signal did it give?
The binding signal was 8280 fluorescence intensity (a.u.).

With “TTTTGGGGTTTTTTTAATATCCTTTTAGGATGGATAGGCACGGAGTCACCTAGTGCAG” as the sequence, how does the binding signal read?
The binding signal was 8560 fluorescence intensity (a.u.).

For “TTGTCCTAGGCTGACACGCCAGTCCCACTCTCTCCATTTACGGAGTCACCTAGTGCAG”, which binding signal is on record?
Its binding signal is 9420 fluorescence intensity (a.u.).

“ACAAAGGACAGCTATTTAACAACTCCCTCGCTCTCTCAATCGGAGTCACCTAGTGCAG” was tested. Which binding signal did it give?
Its binding signal is 8830 fluorescence intensity (a.u.).

For “GCGACCGCCTCCGCGACCGACCGCCGCCGCTCGTTGTCAGCGGAGTCACCTAGTGCAG”, which binding signal is on record?
The binding signal was 8740 fluorescence intensity (a.u.).

How did the binding signal turn out when “CGATAATATACCATCGTTGTCTAATTAGTTTTGGTTAGTACGGAGTCACCTAGTGCAG” was run?
The binding signal was 8350 fluorescence intensity (a.u.).

“CTTTCTGCACTGCATCAACGCGCTGCAAATTCTTTGGTAACGGAGTCACCTAGTGCAG” was tested. Which binding signal did it give?
The binding signal was 8220 fluorescence intensity (a.u.).

For “TCCTATCCGCGTCCATCTCTCTCCCCGTCTCGATTCCCCACGGAGTCACCTAGTGCAG”, which binding signal is on record?
Its binding signal is 10300 fluorescence intensity (a.u.).

How did the binding signal turn out when “GAATCATACTCGTGTCATAGTTGAGGGAGTCAAAGTATACCGGAGTCACCTAGTGCAG” was run?
The binding signal was 8330 fluorescence intensity (a.u.).

“CTGGTTGCGTCTCTGAAGTCTGAAGTATACGAGTCATTCACGGAGTCACCTAGTGCAG” was tested. Which binding signal did it give?
Its binding signal is 12000 fluorescence intensity (a.u.).

For “TACTGCTGCCTGCGTCCTCATCAAAGCTCGCCATTATCAGCGGAGTCACCTAGTGCAG”, which binding signal is on record?
The binding signal was 8170 fluorescence intensity (a.u.).

“TGATACTAGCGCTTCGATTGACACACTTTGACTACTTAGCCGGAGTCACCTAGTGCAG” was tested. Which binding signal did it give?
Its binding signal is 9940 fluorescence intensity (a.u.).

Which binding signal does the source give for “GGAGGATGCGGGTGGTGGTGGAGGAGGAGGAGGCCGAGGTCGGAGTCACCTAGTGCAG” here?
Its binding signal is 12400 fluorescence intensity (a.u.).

Which binding signal does the source give for “CCAAAATATCTCGTCTTTTCATCTGCCGAATCGCCGTTGACGGAGTCACCTAGTGCAG” here?
The binding signal was 8930 fluorescence intensity (a.u.).

Which binding signal does the source give for “TTCTTTATTAGACATACTCTGCCACCACTGCACACAATCCCGGAGTCACCTAGTGCAG” here?
Its binding signal is 8420 fluorescence intensity (a.u.).

“AAACTTGAAGAAATTTGACTTTAGCTAAAGTCAAAACATCCGGAGTCACCTAGTGCAG” was tested. Which binding signal did it give?
Its binding signal is 10600 fluorescence intensity (a.u.).

For “ATCCTACCCGGTTCGTTTTTTTTCATTTTTTTTTACCACCCGGAGTCACCTAGTGCAG”, which binding signal is on record?
Its binding signal is 8130 fluorescence intensity (a.u.).

With “CCGCAGCTACCACCAAAATCGGCACGCATCTTCACCCTCGCGGAGTCACCTAGTGCAG” as the sequence, how does the binding signal read?
Its binding signal is 8160 fluorescence intensity (a.u.).

With “TTCCTCTCCCTCTTGCATCTATCTCCGCCGCCGAATTTGGCGGAGTCACCTAGTGCAG” as the sequence, how does the binding signal read?
Its binding signal is 8260 fluorescence intensity (a.u.).

With “TAACAATTATCTTGCCTTTTGGGAGCTCTTTTTTTTTCTTCGGAGTCACCTAGTGCAG” as the sequence, how does the binding signal read?
Its binding signal is 10200 fluorescence intensity (a.u.).

How did the binding signal turn out when “TTCCCTCGCTTTGCTCCACTTTCTCTCCACTGGCGCATGCCGGAGTCACCTAGTGCAG” was run?
The binding signal was 9080 fluorescence intensity (a.u.).

For “TCTCGCAATTTCTGTCAGAACTATGTAATTGGTTTTTTTCCGGAGTCACCTAGTGCAG”, which binding signal is on record?
The binding signal was 8490 fluorescence intensity (a.u.).

“CTCTACTCTACTGTGCCTCACCTCTTGCCACTACTATTTCCGGAGTCACCTAGTGCAG” was tested. Which binding signal did it give?
The binding signal was 11000 fluorescence intensity (a.u.).

Which binding signal does the source give for “CTGTGTACCCGCGCACACGCAAACCATTTGCATTTGAGCCCGGAGTCACCTAGTGCAG” here?
Its binding signal is 9470 fluorescence intensity (a.u.).

“TGGTTTTCACGGCGAGCCATCTTGTTGTAGCTGTCGGAGTCGGAGTCACCTAGTGCAG” was tested. Which binding signal did it give?
Its binding signal is 11500 fluorescence intensity (a.u.).

How did the binding signal turn out when “CTTTTATGTGATGTTTCCTTAGCATTGTAAACCAGCTTTCCGGAGTCACCTAGTGCAG” was run?
Its binding signal is 8800 fluorescence intensity (a.u.).

“ACCATGTGAAGCTTAGGCTGTCTATCTAACGTTCTGAATTCGGAGTCACCTAGTGCAG” was tested. Which binding signal did it give?
The binding signal was 8400 fluorescence intensity (a.u.).

How did the binding signal turn out when “TAGGTGAGGGCGGTGCGCTTGTCGACGGGGTTGAAGGGGACGGAGTCACCTAGTGCAG” was run?
The binding signal was 10700 fluorescence intensity (a.u.).

“GCCTCTTATCCCTTTCTCTCTTCTTCCGCCGCCGCGTCCTCGGAGTCACCTAGTGCAG” was tested. Which binding signal did it give?
Its binding signal is 12500 fluorescence intensity (a.u.).

“TTATTCTTTTTCTTGTTATTGTTTCGTATCGGCCATTCTCCGGAGTCACCTAGTGCAG” was tested. Which binding signal did it give?
Its binding signal is 9500 fluorescence intensity (a.u.).

With “GCTCTTCCACCTTTCACTCTTCCCCACTGCCCACCACTGTCGGAGTCACCTAGTGCAG” as the sequence, how does the binding signal read?
The binding signal was 8360 fluorescence intensity (a.u.).

With “ACACCCAACCTCCGGCCGGCCGGTTCGTCCTCCCTGTAGTCGGAGTCACCTAGTGCAG” as the sequence, how does the binding signal read?
The binding signal was 8650 fluorescence intensity (a.u.).

For “ACATGCATGCTGTTAGTGGTGGGATCTTTCAGGGGCTTTACGGAGTCACCTAGTGCAG”, which binding signal is on record?
The binding signal was 11700 fluorescence intensity (a.u.).

Which binding signal does the source give for “GTGTGTGTTTTTTTTTGCTGATTGGATTTCCACGTCGACGCGGAGTCACCTAGTGCAG” here?
The binding signal was 12000 fluorescence intensity (a.u.).

“CCCCACCCACCTCCTTGTAAGTTGCAACCTCCCGCCTCACCGGAGTCACCTAGTGCAG” was tested. Which binding signal did it give?
Its binding signal is 8330 fluorescence intensity (a.u.).

For “TGCTATATATTAGTTTTGGATATACATTTCTGGCGTAGTTCGGAGTCACCTAGTGCAG”, which binding signal is on record?
Its binding signal is 8430 fluorescence intensity (a.u.).

With “TAATTCATGGTTGGTTTTTAATTATATTTCCCTCCTTAAACGGAGTCACCTAGTGCAG” as the sequence, how does the binding signal read?
The binding signal was 9580 fluorescence intensity (a.u.).

Which binding signal does the source give for “AGCCGCGCCAAGTGCTTTCCGATTGATTATTGCCGCGAATCGGAGTCACCTAGTGCAG” here?
Its binding signal is 9850 fluorescence intensity (a.u.).

For “TAGTTTTGTCCCAGTCCCAGCACCAGCTCACCACTTGCTACGGAGTCACCTAGTGCAG”, which binding signal is on record?
Its binding signal is 8690 fluorescence intensity (a.u.).

“AGCTAGGCACCGTTCTCAACAGAGTTATACTAAACGGATCCGGAGTCACCTAGTGCAG” was tested. Which binding signal did it give?
The binding signal was 8580 fluorescence intensity (a.u.).

For “TGGTCGTCGGAGTTGGTTTCTTTGTGTTTCTTCTTTAGCGCGGAGTCACCTAGTGCAG”, which binding signal is on record?
The binding signal was 9280 fluorescence intensity (a.u.).

With “TCTATTACCTCGATCTGTTCTAGTGAAATCTCATTAGACACGGAGTCACCTAGTGCAG” as the sequence, how does the binding signal read?
The binding signal was 9220 fluorescence intensity (a.u.).

Which binding signal does the source give for “TATCCTCTCGTTTTGTGCATGTCACCTAAATAGTTATAAACGGAGTCACCTAGTGCAG” here?
Its binding signal is 8110 fluorescence intensity (a.u.).

With “CATCCCTGAATTTATCTACACGGTCGAGATTTTTTTTATACGGAGTCACCTAGTGCAG” as the sequence, how does the binding signal read?
Its binding signal is 8290 fluorescence intensity (a.u.).

Which binding signal does the source give for “CTCCTTCTCCTGCATGCTGCTGCCCTTGCAGGTCTTTTTTCGGAGTCACCTAGTGCAG” here?
Its binding signal is 8270 fluorescence intensity (a.u.).
